pIC50: −log10 of the molar value. The match of structure and compound is tentative.
Molecular target: human complement factor D (Homo sapiens, UniProt P00746)
Test: In vitro enzyme inhibition (Z-Lys-SBzl/DTNB absorbance assay)
Conditions: read-out: CFD IC50; Complement Factor D (R&D Systems), substrate Z-Lys-SBzl, A405 nm
Procedure: The ability of the compounds disclosed herein to inhibit human complement factor D inhibitory activity was quantified according to the 12-step protocol provided below. • 1. Prepare assay buffer: 50 mM Tris/HCl, pH 7.5, 1 M NaCl. • 2. Dilute 10 mM Complement Factor D inhibitor Nafamostat Mesilate (Selleckchem, Catalog #S1386) solution from 10000 μM to 9.77 μM in 100% DMSO, 8 concentrations. Then dilute the serial concentrations of Nafamostat Mesilate 20-fold in assay buffer. • 3. Add 10 μl diluted Nafamostat Mesilate duplicated into each of the inhibitor control well of a 96-well plate (Corning, Catalog #3599). Final concentrations were 50 μM, 25 μM, 12.5 μM, 6.25 μM, 3.125 μM, 0.781 μM, 0.195 μM and 0.049 μM. 0.5% DMSO was in each well finally. • 4. Dilute 20 mM test compounds from 10000 μM to […] in 100% DMSO, 6-fold dilution, 8 concentrations. […] For kinetic reading: Immediately start measuring absorbance (A405 nm) continuously and record data every 30sec for 60 min. • 12. Data analysis • Inhibition activity of compound was evaluated by IC50. IC50 was calculated according the dose-response curve of compound fitted using GraphPadPrism with “log(inhibitor)-response (variable slope)” equation. • % inhibition was calculated by using following equation: […]
The ability of the compounds in Table 2 to inhibit human complement factor D inhibitory activity was determined.

The chains behind the UniProt entries cited, without tags or fusion partners. Residues count along the entry.
UniProt P00746, 26-253 limits assumed: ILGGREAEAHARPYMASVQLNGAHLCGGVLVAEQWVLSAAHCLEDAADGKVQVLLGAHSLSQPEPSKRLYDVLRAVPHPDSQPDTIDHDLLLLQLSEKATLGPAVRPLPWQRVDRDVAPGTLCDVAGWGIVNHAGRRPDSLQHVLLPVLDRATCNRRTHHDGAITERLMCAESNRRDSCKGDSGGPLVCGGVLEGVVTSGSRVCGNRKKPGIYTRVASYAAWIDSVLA

## CC(=O)c1nn(CC(=O)N2[C@H](C(=O)Nc3cccc(Cl)n3)C[C@@H]3CCC[C@@H]32)c2ccc(Br)cc12
  pIC50: 5.00 to 6.00
